Measurements reported in PubChem BioAssay AID602196 (INSERM, 2012)
Shown is a random part of about 23,000 deposited reagents. Over the whole deposit, 455 (2%) were called active. 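Active includes both protection and sensitisation; some change values fall well beyond the stated -50 to +50 range.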 A number with no mark means an inactive call. Not all columns of the deposit are shown. The record does not give: the amount of reagent.

- Purpose: 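Genes whose knock-down alters cisplatin killing of lung cancer cells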
- System: human A549 lung cancer cells
- Knock-down reagent: siRNA pair against human genes
- Duration: 48 h transfection before cisplatin; time from cisplatin to read-out not stated
- Treatment: cisplatin at a dose killing half of control-siRNA cells; exact dose and duration not given
- Measurement: 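Shift in cisplatin death relative to control siRNA, from -50 (all cells die) to +50 (no cells die); siRNAs harmful on their own scored 0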
- Scale: two-siRNA summed score (-2 to +2): higher = both siRNAs protect from cisplatin killing; -2 means both sensitise
- Hit rule: 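siRNAs harmful alone (LDH or WST-1) get 0; others get +1 for less and -1 for more cisplatin killing; genes are active when the two siRNAs give the same sign, summing to ±2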
- Calls: active = both siRNAs shift cisplatin killing the same way; inactive = no consistent shift, or siRNA harmful alone

Knock-down of RASEF resulted in: two-siRNA summed score (-2 to +2) = 0.
With knock-down of MS4A10, the screen gave two-siRNA summed score (-2 to +2) = -1.
FLJ35816 (retired record) gave two-siRNA summed score (-2 to +2) = 0.
Against GAB2, the entry reads two-siRNA summed score (-2 to +2) = 0.
LOC440585 gave two-siRNA summed score (-2 to +2) = 0.
After knock-down of POU5F2 the results were two-siRNA summed score (-2 to +2) = 0.
For CDC42BPB the deposit lists two-siRNA summed score (-2 to +2) = 1.
Knock-down of ASAP3 resulted in: two-siRNA summed score (-2 to +2) = 0.
Depletion of NEUROG1 gave: two-siRNA summed score (-2 to +2) = 0.
After knock-down of MED16, the screen gave two-siRNA summed score (-2 to +2) = 0.
Depletion of SNRPC came out at: two-siRNA summed score (-2 to +2) = -1.
CCNB3 gave two-siRNA summed score (-2 to +2) = 0.
Knock-down of ZNF383 resulted in: two-siRNA summed score (-2 to +2) = 0.
Silencing of FCRL5 resulted in: two-siRNA summed score (-2 to +2) = 0.
For CLIP2, the values are two-siRNA summed score (-2 to +2) = 0.
Knock-down of CDC42EP5 gave: two-siRNA summed score (-2 to +2) = 0.
Against LOC400508, the values are two-siRNA summed score (-2 to +2) = 1.
With knock-down of SCMH1 the results were two-siRNA summed score (-2 to +2) = -1.

Records listed so far whose target name starts with S or s (2):
SNRPC: two-siRNA summed score (-2 to +2) = -1
SCMH1: two-siRNA summed score (-2 to +2) = -1

The results go on.
With knock-down of SEMA4F, the record shows two-siRNA summed score (-2 to +2) = 0.
CDH22 gave two-siRNA summed score (-2 to +2) = -1.
Against VGF, the values are two-siRNA summed score (-2 to +2) = -1.
Knock-down of KIR2DL2 gave: two-siRNA summed score (-2 to +2) = 0.
LOC440798 showed two-siRNA summed score (-2 to +2) = 0.
After knock-down of KRT36 the results were two-siRNA summed score (-2 to +2) = 0.
With knock-down of BRD1, the record shows two-siRNA summed score (-2 to +2) = 0.
LOC440835 showed two-siRNA summed score (-2 to +2) = 0.
LOC391553 showed two-siRNA summed score (-2 to +2) = 0.
For LOC390345, the entry reads two-siRNA summed score (-2 to +2) = 1.
LOC441382 gave two-siRNA summed score (-2 to +2) = 0.
For NR1H3 the deposit lists two-siRNA summed score (-2 to +2) = -1.
For FAM194C the deposit lists two-siRNA summed score (-2 to +2) = 1.
